The source of these data is publication PMC10500938.

These are yes or no findings as the source states them, for the method shown. Binding seen in cells or lysates may run through a third protein. These calls come from enrichment with a bait or labelling near it, and not all partners need be listed.

In test [1] the target is SARS-CoV-2 Nsp8, Strep-tagged (SARS-CoV-2) (UniProt P0DTD1). As to the kind of experiment: affinity purification with mass spectrometry.
Test [2] addresses SARS-CoV-2 Nsp6, Strep-tagged (SARS-CoV-2) (UniProt P0DTD1). As to the kind of experiment: affinity purification with mass spectrometry.

As to “ATPase subunit ATP5A1 (from UniProt P25705 44-553)”, the binding result in test [1] and in test [2] was “binds” in each case.
Take “ATPase subunit ATP5B (from UniProt P06576 48-529)”: the binding entry in test [1] and in test [2] was “binds” in each case.
